{"source": "PubChem BioAssay AID212", "about": "(DTP/NCI, 2004)", "tested_on": "BDF1 mice, colon carcinoma 38 sc, T/C %", "assay": "NCI In Vivo Anticancer Drug Screen. Data for tumor model Colon Carcinoma 38 (subcutaneous) in B6D2F1 (BDF1) mice", "conditions": "T/C endpoint: median tumor weight (est.), higher T/C = larger tumour", "outline": "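Ratio of survival or tumor size, compound-treated animals relative to vehicle controls, in tumor-bearing mice.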", "key": {"[1]": {"conditions": "dose: 12.5 mg/kg/injection, schedule: Q07DX002 (ip), vehicle: saline with Tween-80, evaluated on day 20"}, "[2]": {"conditions": "dose: 200.0 mg/kg/injection, schedule: Q07DX002 (ip), vehicle: saline with Tween-80"}, "[3]": {"conditions": "dose: 25.0 mg/kg/injection, schedule: Q07DX002 (ip), vehicle: saline with Tween-80, evaluated on day 20"}}, "note": "The list does not hold the whole screen: it gathers tests that were run many times, whatever their T/C, doses with no T/C, and many T/C values between a quarter and a half above the control. Further doses and runs are listed elsewhere. T/C gives the treated animals as a percentage of the vehicle group. Schedules are NCI's codes, read here as Q, the interval in days (D) or hours (H), X, the number of doses. Some T/C values carry the count of animals alive at the toxicity check (mostly the fifth day); where none is given, no animal had died by that day. Some entries hold several experiments; their values stand side by side, smallest first. Some doses have a count of surviving animals in place of a T/C: the source holds a T/C of zero for them, seemingly a mark for toxic or unscored doses. Counts of survivors are from the toxicity check (mostly the fifth day) where no day follows; animals may have died later."}
{"smiles": "CNC=O", "values": [{"measurement": "survivor count", "setting": "dose: 3200.0 mg/kg/injection, schedule: Q07DX002 (ip), vehicle: saline", "result": "0 of 10 on day 20"}, {"measurement": "survivor count", "setting": "dose: 6400.0 mg/kg/injection, schedule: Q07DX002 (ip), vehicle: saline", "result": "0 of 10 on day 20"}]}
{"smiles": "CCCCCC[Se][Se]CCCCCC", "values": [{"measurement": "T/C", "setting": "dose: 6.25 mg/kg/injection, schedule: Q07DX002 (ip), vehicle: Klucel (hydroxypropylcellulose) (HPC), evaluated on day 20", "result": "129 % of control"}, {"measurement": "T/C", "setting": "dose: 12.5 mg/kg/injection, schedule: Q07DX002 (ip), vehicle: Klucel (hydroxypropylcellulose) (HPC), evaluated on day 20", "result": "129 % of control"}, {"measurement": "T/C", "setting": "dose: 50.0 mg/kg/injection, schedule: Q07DX002 (ip), vehicle: Klucel (hydroxypropylcellulose) (HPC), evaluated on day 20", "result": "144 % of control [9 of 10 alive on day 20]"}, {"measurement": "survivor count", "setting": "dose: 100.0 mg/kg/injection, schedule: Q07DX002 (ip), vehicle: Klucel (hydroxypropylcellulose) (HPC)", "result": "0 of 10 on day 20"}]}
{"smiles": "C=CCNc1nc2c(s1)CCc1cc(OC)c(OC)cc1-2", "values": [{"measurement": "T/C", "setting": "[1]", "result": "128 % of control"}, {"measurement": "survivor count", "setting": "dose: 400.0 mg/kg/injection, schedule: Q07DX002 (ip), vehicle: saline with Tween-80", "result": "3 of 10 on day 20"}]}
{"smiles": "COC1=NCN=C2SC=C(N)N=C12", "values": [{"measurement": "T/C", "setting": "dose: 25.0 mg/kg/injection, schedule: Q07DX003 (ip), vehicle: saline, evaluated on day 21", "result": "126 % of control"}]}
{"smiles": "CCOC(=O)[C@]1(Br)CC[C@@]1(Br)C(=O)OCC", "values": [{"measurement": "T/C", "setting": "[1]", "result": "140 % of control"}, {"measurement": "T/C", "setting": "dose: 100.0 mg/kg/injection, schedule: Q07DX002 (ip), vehicle: saline with Tween-80, evaluated on day 20", "result": "142 [9 of 10 alive on day 20] and 146 % of control"}, {"measurement": "survivor count", "setting": "dose: 1600.0 mg/kg/injection, schedule: Q07DX002 (ip), vehicle: saline with Tween-80", "result": "2 of 10 on day 20"}]}
{"smiles": "C[Si](C)(CCl)N[Si](C)(C)CCl", "values": [{"measurement": "T/C", "setting": "dose: 200.0 mg/kg/injection, schedule: Q07DX002 (ip), vehicle: saline with Tween-80, evaluated on day 20", "result": "139 % of control"}, {"measurement": "survivor count", "setting": "dose: 800.0 mg/kg/injection, schedule: Q07DX002 (ip), vehicle: saline with Tween-80", "result": "1 of 10 on day 20"}]}
{"smiles": "COC1C(C)OC(OC2CC(C)(O)Cc3cc4c(c(O)c32)C(=O)c2c(O)cc3c(c2C4=O)OC2OC3(C)C(O)C(N(C)C)C2O)C(OC)C1(C)OC", "note": "(stereo unspecified)", "values": [{"measurement": "T/C", "setting": "dose: 2.5 mg/kg/injection, schedule: Q07DX002 (ip), vehicle: other, evaluated on day 20", "result": "131 % of control"}]}
{"smiles": "C=CS(=O)(=O)c1ccccc1", "values": [{"measurement": "T/C", "setting": "dose: 6.25 mg/kg/injection, schedule: Q07DX002 (ip), vehicle: saline, evaluated on day 20", "result": "145 % of control"}, {"measurement": "T/C", "setting": "dose: 25.0 mg/kg/injection, schedule: Q07DX002 (ip), vehicle: saline, evaluated on day 20", "result": "125 % of control [9 of 10 alive]"}, {"measurement": "T/C", "setting": "dose: 100.0 mg/kg/injection, schedule: Q07DX002 (ip), vehicle: saline, evaluated on day 20", "result": "140 % of control [9 of 10 alive]"}, {"measurement": "survivor count", "setting": "[2]", "result": "1 of 10 on day 20"}]}
{"smiles": "O=C(O)C1CC1.[Ag]", "values": [{"measurement": "T/C", "setting": "dose: 12.5 mg/kg/injection, schedule: Q07DX002 (ip), vehicle: distilled water + Tween-80, evaluated on day 20", "result": "129 % of control"}, {"measurement": "survivor count", "setting": "dose: 25.0 mg/kg/injection, schedule: Q07DX002 (ip), vehicle: water", "result": "5 of 10 on day 20"}, {"measurement": "survivor count", "setting": "dose: 50.0 mg/kg/injection, schedule: Q07DX002 (ip), vehicle: distilled water + Tween-80", "result": "0 of 10 on day 20"}, {"measurement": "survivor count", "setting": "dose: 50.0 mg/kg/injection, schedule: Q07DX002 (ip), vehicle: water", "result": "1 of 10 on day 20"}, {"measurement": "survivor count", "setting": "dose: 100.0 mg/kg/injection, schedule: Q07DX002 (ip), vehicle: distilled water + Tween-80", "result": "0 of 10 on day 20"}, {"measurement": "survivor count", "setting": "dose: 100.0 mg/kg/injection, schedule: Q07DX002 (ip), vehicle: water", "result": "0 of 10 on day 20"}, {"measurement": "survivor count", "setting": "dose: 200.0 mg/kg/injection, schedule: Q07DX002 (ip), vehicle: distilled water + Tween-80", "result": "0 of 10 on day 20"}, {"measurement": "survivor count", "setting": "dose: 200.0 mg/kg/injection, schedule: Q07DX002 (ip), vehicle: water", "result": "0 of 10 on day 20"}]}
{"smiles": "Cc1cc2cc3cc(C)c(N)cc3nc2cc1N", "values": [{"measurement": "T/C", "setting": "[3]", "result": "138 % of control"}, {"measurement": "survivor count", "setting": "[2]", "result": "3 of 10 on day 20"}]}
{"smiles": "O=C(O)/C=C/C(=O)N1Cc2cc3ccccc3nc2C1", "values": [{"measurement": "T/C", "setting": "[3]", "result": "149 % of control"}, {"measurement": "T/C", "setting": "dose: 400.0 mg/kg/injection, schedule: Q07DX002 (ip), vehicle: saline with Tween-80, evaluated on day 20", "result": "138 % of control [9 of 10 alive on day 20]"}]}
